Reference: publication doi:10.1101/2020.06.08.139816
Results are given in words; binding and its absence hold for the method and conditions named. Binding seen in cells or lysates may run through a third protein. A yes stands for co-enrichment or nearness to the bait. Other partners may have been found. A no says only that the protein was not detected with the bait. Tags and fused reporters may be left off the sequences shown.

By UniProt entry, the sequences of proteins in these tests, tags left out. Where a name states a change or a piece, a line headed by the entry shows the natural chain unless it says otherwise. Residues count along the entry.
UniProt O62526: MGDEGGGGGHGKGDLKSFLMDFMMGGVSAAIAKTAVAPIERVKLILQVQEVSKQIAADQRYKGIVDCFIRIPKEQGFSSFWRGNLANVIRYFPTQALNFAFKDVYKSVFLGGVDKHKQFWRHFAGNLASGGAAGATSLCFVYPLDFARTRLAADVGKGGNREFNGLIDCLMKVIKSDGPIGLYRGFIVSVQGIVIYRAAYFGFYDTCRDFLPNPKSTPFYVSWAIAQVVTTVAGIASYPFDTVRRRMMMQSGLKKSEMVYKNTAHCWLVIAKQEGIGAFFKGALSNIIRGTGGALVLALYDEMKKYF
UniProt P10040, residues 84-2146: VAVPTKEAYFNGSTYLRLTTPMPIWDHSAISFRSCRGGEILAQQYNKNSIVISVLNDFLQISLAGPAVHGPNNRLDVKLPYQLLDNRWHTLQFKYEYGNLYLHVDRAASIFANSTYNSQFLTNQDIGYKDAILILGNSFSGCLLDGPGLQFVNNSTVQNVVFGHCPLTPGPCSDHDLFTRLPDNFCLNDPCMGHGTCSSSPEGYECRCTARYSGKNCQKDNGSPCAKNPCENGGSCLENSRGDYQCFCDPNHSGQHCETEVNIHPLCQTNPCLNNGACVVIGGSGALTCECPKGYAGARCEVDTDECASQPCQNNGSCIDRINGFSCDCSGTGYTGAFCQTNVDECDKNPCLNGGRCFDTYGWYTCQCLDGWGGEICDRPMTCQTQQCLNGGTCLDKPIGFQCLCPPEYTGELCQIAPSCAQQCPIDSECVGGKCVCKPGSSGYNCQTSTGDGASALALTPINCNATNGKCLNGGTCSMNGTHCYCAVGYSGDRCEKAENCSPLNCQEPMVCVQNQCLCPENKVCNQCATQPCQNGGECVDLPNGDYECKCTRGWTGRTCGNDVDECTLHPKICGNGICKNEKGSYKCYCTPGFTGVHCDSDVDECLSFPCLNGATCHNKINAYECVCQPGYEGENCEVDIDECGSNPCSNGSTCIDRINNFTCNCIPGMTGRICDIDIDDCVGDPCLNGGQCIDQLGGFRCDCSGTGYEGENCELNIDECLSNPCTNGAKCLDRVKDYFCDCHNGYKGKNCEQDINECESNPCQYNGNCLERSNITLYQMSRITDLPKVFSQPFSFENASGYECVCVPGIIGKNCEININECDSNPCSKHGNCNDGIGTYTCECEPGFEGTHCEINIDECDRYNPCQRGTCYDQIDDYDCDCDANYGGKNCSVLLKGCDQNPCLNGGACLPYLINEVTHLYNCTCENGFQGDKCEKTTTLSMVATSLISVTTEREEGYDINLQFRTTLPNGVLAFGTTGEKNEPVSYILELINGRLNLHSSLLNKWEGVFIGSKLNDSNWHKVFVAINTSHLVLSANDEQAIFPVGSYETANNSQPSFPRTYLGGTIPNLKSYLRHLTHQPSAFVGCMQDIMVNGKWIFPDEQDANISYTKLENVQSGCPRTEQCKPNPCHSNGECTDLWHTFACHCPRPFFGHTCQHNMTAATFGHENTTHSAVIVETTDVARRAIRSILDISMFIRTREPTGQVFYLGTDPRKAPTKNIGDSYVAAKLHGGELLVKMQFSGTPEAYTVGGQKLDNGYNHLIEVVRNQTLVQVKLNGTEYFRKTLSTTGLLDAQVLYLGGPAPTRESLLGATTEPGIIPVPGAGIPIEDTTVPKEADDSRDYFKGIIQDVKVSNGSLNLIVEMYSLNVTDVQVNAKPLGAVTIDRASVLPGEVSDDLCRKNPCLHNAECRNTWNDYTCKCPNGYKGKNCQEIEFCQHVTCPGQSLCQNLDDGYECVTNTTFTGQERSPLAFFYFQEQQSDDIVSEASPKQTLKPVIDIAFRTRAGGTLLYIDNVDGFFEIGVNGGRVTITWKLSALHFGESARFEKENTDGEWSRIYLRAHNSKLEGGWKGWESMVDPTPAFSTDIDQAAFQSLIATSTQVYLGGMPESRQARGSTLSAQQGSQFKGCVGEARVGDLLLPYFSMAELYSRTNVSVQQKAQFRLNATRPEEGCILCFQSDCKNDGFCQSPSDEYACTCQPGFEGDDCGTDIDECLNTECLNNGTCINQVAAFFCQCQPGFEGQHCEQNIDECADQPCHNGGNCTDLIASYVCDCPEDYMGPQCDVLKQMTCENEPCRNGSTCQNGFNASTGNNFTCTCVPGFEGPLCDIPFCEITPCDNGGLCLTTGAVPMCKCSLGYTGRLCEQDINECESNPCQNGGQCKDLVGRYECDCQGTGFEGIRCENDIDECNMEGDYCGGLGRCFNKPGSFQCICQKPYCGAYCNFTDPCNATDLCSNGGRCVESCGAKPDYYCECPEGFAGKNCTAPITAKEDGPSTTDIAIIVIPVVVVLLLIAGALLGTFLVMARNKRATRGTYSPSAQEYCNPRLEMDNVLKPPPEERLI
UniProt P17210: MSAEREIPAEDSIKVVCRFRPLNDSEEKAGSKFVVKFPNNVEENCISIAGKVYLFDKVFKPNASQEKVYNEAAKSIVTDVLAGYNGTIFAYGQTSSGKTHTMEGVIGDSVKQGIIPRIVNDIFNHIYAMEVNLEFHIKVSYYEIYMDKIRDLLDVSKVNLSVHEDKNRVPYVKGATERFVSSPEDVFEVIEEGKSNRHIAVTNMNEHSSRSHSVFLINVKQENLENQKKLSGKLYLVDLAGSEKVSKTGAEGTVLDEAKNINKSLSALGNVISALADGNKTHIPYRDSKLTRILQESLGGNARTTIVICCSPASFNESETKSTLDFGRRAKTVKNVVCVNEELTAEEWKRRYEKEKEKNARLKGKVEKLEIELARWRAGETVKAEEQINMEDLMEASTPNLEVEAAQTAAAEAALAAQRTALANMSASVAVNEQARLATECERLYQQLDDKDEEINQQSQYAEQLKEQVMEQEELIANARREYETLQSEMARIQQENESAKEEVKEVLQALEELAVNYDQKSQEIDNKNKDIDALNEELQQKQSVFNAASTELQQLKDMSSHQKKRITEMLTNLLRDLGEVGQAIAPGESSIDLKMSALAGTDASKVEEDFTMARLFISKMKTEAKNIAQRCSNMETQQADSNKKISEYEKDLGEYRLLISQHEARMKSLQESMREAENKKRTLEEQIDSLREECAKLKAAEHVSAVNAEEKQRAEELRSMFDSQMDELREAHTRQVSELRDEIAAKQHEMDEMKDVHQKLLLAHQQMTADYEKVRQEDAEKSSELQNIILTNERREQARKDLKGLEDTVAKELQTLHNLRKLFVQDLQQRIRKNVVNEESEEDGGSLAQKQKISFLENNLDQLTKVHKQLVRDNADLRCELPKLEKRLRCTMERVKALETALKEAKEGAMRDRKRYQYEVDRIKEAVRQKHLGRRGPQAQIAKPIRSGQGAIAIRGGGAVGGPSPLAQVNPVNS
UniProt P46824: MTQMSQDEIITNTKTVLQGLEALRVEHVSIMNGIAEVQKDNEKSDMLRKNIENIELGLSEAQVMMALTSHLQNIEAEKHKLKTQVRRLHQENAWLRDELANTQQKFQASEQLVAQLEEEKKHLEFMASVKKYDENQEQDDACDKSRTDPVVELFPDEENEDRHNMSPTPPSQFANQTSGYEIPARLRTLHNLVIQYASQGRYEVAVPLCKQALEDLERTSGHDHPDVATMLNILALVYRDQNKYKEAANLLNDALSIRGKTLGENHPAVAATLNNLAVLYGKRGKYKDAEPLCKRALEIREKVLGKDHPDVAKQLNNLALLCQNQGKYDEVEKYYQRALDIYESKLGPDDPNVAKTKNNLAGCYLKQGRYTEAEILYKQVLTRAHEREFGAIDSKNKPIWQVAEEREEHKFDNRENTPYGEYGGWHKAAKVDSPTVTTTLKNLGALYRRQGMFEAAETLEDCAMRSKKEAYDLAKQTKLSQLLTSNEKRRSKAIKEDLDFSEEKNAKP

T1: Mms19::eGFP (Drosophila) (UniProt Q95U54)
T1 sequence: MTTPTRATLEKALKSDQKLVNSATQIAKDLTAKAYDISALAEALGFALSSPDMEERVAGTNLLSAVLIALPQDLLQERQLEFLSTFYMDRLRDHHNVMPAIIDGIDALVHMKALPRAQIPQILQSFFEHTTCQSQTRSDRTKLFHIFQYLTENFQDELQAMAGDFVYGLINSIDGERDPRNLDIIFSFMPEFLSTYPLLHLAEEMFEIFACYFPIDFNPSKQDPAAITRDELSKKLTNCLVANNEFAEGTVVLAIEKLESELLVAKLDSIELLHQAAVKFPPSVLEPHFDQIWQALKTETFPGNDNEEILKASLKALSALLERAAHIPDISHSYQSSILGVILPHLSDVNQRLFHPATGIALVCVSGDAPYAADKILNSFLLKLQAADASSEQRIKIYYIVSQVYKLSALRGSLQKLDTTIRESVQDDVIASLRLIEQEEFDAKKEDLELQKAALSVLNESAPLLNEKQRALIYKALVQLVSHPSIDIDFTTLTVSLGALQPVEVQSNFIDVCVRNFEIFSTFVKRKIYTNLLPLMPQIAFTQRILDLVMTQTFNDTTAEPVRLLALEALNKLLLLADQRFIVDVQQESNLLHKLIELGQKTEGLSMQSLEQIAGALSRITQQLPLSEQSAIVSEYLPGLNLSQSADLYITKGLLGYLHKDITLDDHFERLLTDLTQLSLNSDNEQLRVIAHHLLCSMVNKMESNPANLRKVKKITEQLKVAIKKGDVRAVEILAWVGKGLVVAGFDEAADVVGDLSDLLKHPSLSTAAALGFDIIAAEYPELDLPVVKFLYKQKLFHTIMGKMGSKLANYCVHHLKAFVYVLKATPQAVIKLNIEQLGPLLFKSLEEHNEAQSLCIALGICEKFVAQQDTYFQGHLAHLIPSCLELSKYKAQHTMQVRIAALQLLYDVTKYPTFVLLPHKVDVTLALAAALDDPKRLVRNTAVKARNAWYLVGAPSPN


Molecular target: T1, Mms19::eGFP (Drosophila)
Assay: affinity purification with mass spectrometry

Row | binding | Molecule
1 | binds | Ant2 (from UniProt O62526)
2 | no binding | Crumbs (from UniProt P10040 84-2146)
3 | binds | Kinesin heavy chain (from UniProt P17210 1-975)
4 | binds | Kinesin light chain (from UniProt P46824 1-508)
5 | no binding | Klp3a (Drosophila (endogenous in adult flies))
6 | binds | Mip18 (protein, UniProt Q9VTC4 1-156) MPTEIENINPNVYDRIKERVLTANEEDENVPDPFDKREIFDLIRNINDPEHPLTLEELHVVQEDLIRINDSQNSVHISFTPTIPHCSMATLIGLSIRVKLLRSLPPRFKVTVEITPGTHASELAVNKQLADKERVAAALENNHLAEVINQCIAAKG
7 | binds | Ciao1 (protein, UniProt Q7K1Y4 1-335) MGRLILEHTLQGHKGRIWGVAWHPKGNVFASCGEDKAIRIWSLTGNTWSTKTILSDGHKRTIREIRWSPCGQYLASASFDATTAIWSKSSGEFECNATLEGHENEVKSVSWSRSGGLLATCSRDKSVWIWEVAGDDEFECAAVLNPHTQDVKRVVWHPTKDILASASYDNTIKMFAEEPIDNDWDCTATLTSHTSTVWGIDFDADGERLVSCSDDTTIKIWRAYHPGNTAGVATPDQQTVWKCVCTVSGQHSRAIYDVSWCKLTGLIATACGDDGIRIFKESSDSKPDEPTFEQITAEEGAHDQDVNSVQWNPVVAGQLISCSDDGTIKIWKVTE
8 | binds | Lis-1 (protein, UniProt Q7KNS3 1-411) MKMVLSQRQREELNQAIADYLGSNGYADSLETFRKEADLSTEVEKKFGGLLEKKWTSVIRLQKKVMELEAKLTEAEKEVIEGAPTKNKRTPGEWIPRPPEKFSLTGHRASITRVIFHPIFALMVSASEDATIRIWDFETGEYERSLKGHTDSVQDVAFDAQGKLLASCSADLSIKLWDFQQSYECIKTMHGHDHNVSSVAFVPAGDYVLSASRDRTIKMWEVATGYCVKTYTGHREWVRMVRVHIEGSIFATCSNDQTIRVWLTNSKDCKVELRDHEHTVECIAWAPEAAASAINEAAGADNKKGHHQGPFLASGSRDKTIRIWDVSVGLCLLTLSGHDNWVRGLAFHPGGKYLVSASDDKTIRVWDLRNKRCMKTLYAHQHFCTSIDFHKAHPYVISGSVDQTVKVWECR
